Here are results for one molecule from patent US10364238B2, “N-((het) arylmethyl)-heteroaryl-carboxamides compounds as plasma kallikrein inhibitors” (KALVISTA PHARMACEUTICALS LIMITED, priority 2014, dated 2019).

Protein sequences, listed by entry. Tags and fused reporters are not part of them. Residues count along the entry.
UniProt P06870, 25-262: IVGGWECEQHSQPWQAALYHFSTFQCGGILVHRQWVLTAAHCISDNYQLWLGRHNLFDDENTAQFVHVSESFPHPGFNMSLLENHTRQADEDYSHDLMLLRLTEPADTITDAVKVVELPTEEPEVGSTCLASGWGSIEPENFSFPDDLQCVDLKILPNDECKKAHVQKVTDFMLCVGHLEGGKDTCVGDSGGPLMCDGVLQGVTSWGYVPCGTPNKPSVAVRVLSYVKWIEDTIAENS

Each structure is given as a SMILES string.

For the test, the target named is Human KLK1 (Homo sapiens (Human), UniProt P06870). As to the kind of experiment: Determination of the IC50 for KLK1. The class given is biochemical. To be noted: 25° C., fluorogenic substrate H-DVal-Leu-Arg-AFC. The method, then: Determination of the IC50 for KLK1
Human KLK1 (Callbiochem) was incubated at 25° C. with the fluorogenic substrate H-DVal-Leu-Arg-AFC and various concentrations of the test compound. Residual enzyme activity (initial rate of reaction) was determined by measuring the change in […] at 410 nm and the IC50 value for the test compound was determined.

The molecule `COCc1nn(Cc2ccc(Cn3ccccc3=O)cc2)cc1C(=O)NCc1c(F)ccc(OC)c1C(F)F` [Example 83, N-{[2-(difluoromethyl)-6-fluoro-3-methoxyphenyl]methyl}-3-(methoxymethyl)-1-({4-[(2-oxopyridin-1-yl)methyl]phenyl}methyl)pyrazole-4-carboxamide] had an IC50 greater than 40 µM.

A word on the IC50: it is the concentration that gives 50% inhibition. Read a high IC50 as weaker potency.
